The test system of assay [1] is Jurkat, human leukemic T cell line. Nature of the assay: Anti-proliferation MTT / CCK-8 assay. The assay is classed as cell-based. The settings on record: 72 h, read-out: IC50 against Jurkat cells. How it is done:
(§1) These cells were purchased from the National Collection of Authenticated Cell Cultures (Shanghai, China).
(§2) The concentration of the cell suspension was adjusted to the appropriate concentration with fresh medium (the number of cells was about 30–40% of the bottom area of the well plate). 150 μL (about 1 × 10^4 cells) of prepared cell suspension containing different concentrations of NBU-2 were added to a 96-microtiter plate, and 3 replicate wells were set up for each concentration. If the cells were adherent, the cells were first allowed to grow overnight in 96 microtiter plates until the cells were adherent, and then the old medium was replaced with the drug-containing medium. The plates were incubated in a 5% CO2 cell incubator at 37 °C for 72 h. Then, 15 μL of MTT solution was added to each well, 100 μL of 10% SDS solution (pH = 2) was added after 4 h, and the plate was incubated at 37 °C with 5% CO2 overnight to fully dissolve the crystals.
(§3) The cells (about 1 × 10^4 cells) were treated with different concentrations of NBU-2 and DMSO control for different times (24 h, 48 h, 72 h), with 3 replicate wells for each concentration. Incubate at 37 °C in a 5% CO2 cell culture incubator. After a predetermined time, 10 μL of CCK-8 was added to each well and incubated for 2 h. The absorbance was measured at the excitation wavelength of 450 nm.
(In general: Formazan colour is commonly taken as a measure of viable cells.)

Assay [2] has as its system HUVEC, human umbilical vein endothelial cells. Description: Toxicity on normal cells (MTT / CCK-8 assay). The settings on record: 72 h, read-out: IC50 anti-proliferative activity against HUVECs. The assay is classed as cell-based. The method, then: as §1, §2, §3

For `O=C(CCCCCCC(=O)Nc1ccccc1)NO` [SAHA, Vorinostat, reference compound], the IC50 (in general, the concentration that inhibits the measured activity by half) in assay [1] was 370 nM; in assay [2], 5620 nM.

For the origin of these results see PMC12651750 (Cells, 2025).
